Results taken from the supplement of paper PMC12889115.
The other results are listed elsewhere or left out. Values are raw readings; no control value is given beside them.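 Primary screen: polymyxin B was added at a level permeabilizing Salmonella outer membranes while sparing inner membranes. DMSO wells, both with and without polymyxin B, established maximum growth. Plate-to-plate variation meant each plate was ranked on its own, and the lowest-OD600 compounds were selected as hits.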

Tested on: Salmonella enterica serovar Typhimurium SL1344
Experiment: bacterial growth OD600 after 18 h with compound and polymyxin B; higher = more bacterial growth (less inhibition)
Conditions: 50 µM, Mueller-Hinton broth

Structure (SMILES) | bacterial growth OD600 (polymyxin B 1 µg/mL) | bacterial growth OD600 (polymyxin B 0.75 µg/mL)
COc1ccc(CCN2CCC(CN(C)C(=O)c3ccc(F)cc3F)CC2)cc1 | 1.05 | 
COc1cccc(CCC2CCCN(C(C)=O)C2)c1 (stereo not given) |  | 0.854
O=C1CCC(CCNCc2cc3c(cc2Cl)OCO3)N1Cc1cccc(F)c1 (stereo not given) |  | 0.797
CN(C)S(=O)(=O)NC1CC(C)(C)Cc2nc(C(C)(C)C)ncc21 (stereo not given) |  | 0.843
COCCN1C(=O)CC(CC(=O)N(C)Cc2n[nH]c3c2CCCCC3)(c2ccccc2F)C1=O (stereo not given) |  | 0.801
O=C(NCC1CCCCO1)c1coc(COc2cccc(C(F)(F)F)c2)n1 (stereo not given) | 0.932 | 
Cc1nnc(-c2cccc(NC(=O)C3CCN(CCc4ccccc4)CC3)c2)s1 | 0.999 | 
COCCN1C(=O)CC(CC(=O)N2CCCC(COc3ccccc3C)C2)(c2ccccc2F)C1=O (stereo not given) |  | 0.001
CCC(O)C1CCN(C(=O)CC2(c3ccc(-c4ccccc4)cc3)CC(=O)N(C)C2=O)CC1 (stereo not given) |  | 0.699
COc1cc(-c2n[nH]cc2CN2CCC(C(O)c3cccs3)CC2)cc(OC)c1OC (stereo not given) | 0.869 | 
COc1ccc(-c2noc(CN3CCC(O)(c4cccc(C(F)(F)F)c4)CC3)n2)cc1 | 0.007 | 
CSc1nc(C(=O)N2CCC(C3CCN(CC(C)C)CC3)C2)cs1 (stereo not given) |  | 0.963
CC#CCN1C(=O)NC(CCc2ccccc2)(C2CCN(Cc3cccc(OCCO)c3)CC2)C1=O (stereo not given) |  | 0.978
Cc1c(C(=O)NCC2OCCc3ccccc32)cnn1-c1ncc2c(n1)-c1ccccc1CCC2 (stereo not given) |  | 0.004
COc1ccc(CC(=O)N2CCC(N3CCC(C(=O)NC4CC4)CC3)CC2)cc1 | 0.884 | 
COc1ccc(CC2(CCC(=O)N3CCCC(C(=O)CC(C)C)C3)CCC(=O)N2)c2ccccc12 (stereo not given) |  | 0.268
COc1ccc(OC2CCN(C(=O)Cn3cc(NC(=O)CCc4ccccc4OC)cn3)CC2)cc1 |  | 0.781
CCOc1ccc2nc(N3CCCC(C(=O)NCCc4nc(C)c5c(n4)CCCC5)C3)nc(C)c2c1 (stereo not given) |  | 0.639
COCCN(CC1CCCN(C2Cc3ccccc3C2)C1)C(=O)c1cc(C)nn1C (stereo not given) |  | 0.87
CCc1ccc(CN2CCCC(CO)(CCCc3ccccc3)C2)o1 (stereo not given) |  | 0.773
COC(=O)c1ccc(CN2CCOc3ccc(C(O)CCc4ccccc4)cc3C2)cc1 (stereo not given) |  | 0
CSCCC(=O)NC1CCCN(CCCc2ccccc2)C1 (stereo not given) | 1.2 | 
CCOc1ccc2nc(N3CCCC3C(=O)NCc3c(C)nn(CC)c3C)nc(C)c2c1 (stereo not given) |  | 1.01
COc1cccc(NC(=O)CCC2CCN(C(=O)c3cc(C)oc3C)CC2)c1 | 0.937 | 
Cc1oc(-c2ccccc2NS(C)(=O)=O)nc1CN(C)Cc1ccc(CN2CCCCC2)s1 |  | 0.711
Cc1ccoc1C(=O)NC1CC(=O)N(Cc2ccccc2C(F)(F)F)C1 (stereo not given) | 0.976 | 
COc1ccc(CNC(C)c2cnn(-c3ccc(F)cc3F)c2C)cc1 (stereo not given) |  | 0.827
Cc1ccc2c(c1)CN(Cc1cn(C)nc1C)CC(c1ccsc1)O2 (stereo not given) |  | 0.006
COc1cc(CN2CCN(Cc3cc(F)ccc3F)CC2CCO)cc(OC)c1 (stereo not given) | 0.826 | 
CC(=O)N1CCCC1C(=O)Nc1ccccc1Oc1cccnc1 (stereo not given) |  | 0.837

One compound at a time, from the list above:
COc1cc(-c2n[nH]cc2CN2CCC(C(O)c3cccs3)CC2)cc(OC)c1OC (stereo not given) as listed: bacterial growth OD600 (polymyxin B 1 µg/mL): 0.869
COc1cccc(NC(=O)CCC2CCN(C(=O)c3cc(C)oc3C)CC2)c1 as listed: bacterial growth OD600 (polymyxin B 1 µg/mL): 0.937
